This passage reports binding results from article doi:10.1101/299552.

By UniProt entry, the sequences of proteins in these tests, tags left out. Where a name states a change or a piece, a line headed by the entry shows the natural chain unless it says otherwise.
UniProt Q5DTM8: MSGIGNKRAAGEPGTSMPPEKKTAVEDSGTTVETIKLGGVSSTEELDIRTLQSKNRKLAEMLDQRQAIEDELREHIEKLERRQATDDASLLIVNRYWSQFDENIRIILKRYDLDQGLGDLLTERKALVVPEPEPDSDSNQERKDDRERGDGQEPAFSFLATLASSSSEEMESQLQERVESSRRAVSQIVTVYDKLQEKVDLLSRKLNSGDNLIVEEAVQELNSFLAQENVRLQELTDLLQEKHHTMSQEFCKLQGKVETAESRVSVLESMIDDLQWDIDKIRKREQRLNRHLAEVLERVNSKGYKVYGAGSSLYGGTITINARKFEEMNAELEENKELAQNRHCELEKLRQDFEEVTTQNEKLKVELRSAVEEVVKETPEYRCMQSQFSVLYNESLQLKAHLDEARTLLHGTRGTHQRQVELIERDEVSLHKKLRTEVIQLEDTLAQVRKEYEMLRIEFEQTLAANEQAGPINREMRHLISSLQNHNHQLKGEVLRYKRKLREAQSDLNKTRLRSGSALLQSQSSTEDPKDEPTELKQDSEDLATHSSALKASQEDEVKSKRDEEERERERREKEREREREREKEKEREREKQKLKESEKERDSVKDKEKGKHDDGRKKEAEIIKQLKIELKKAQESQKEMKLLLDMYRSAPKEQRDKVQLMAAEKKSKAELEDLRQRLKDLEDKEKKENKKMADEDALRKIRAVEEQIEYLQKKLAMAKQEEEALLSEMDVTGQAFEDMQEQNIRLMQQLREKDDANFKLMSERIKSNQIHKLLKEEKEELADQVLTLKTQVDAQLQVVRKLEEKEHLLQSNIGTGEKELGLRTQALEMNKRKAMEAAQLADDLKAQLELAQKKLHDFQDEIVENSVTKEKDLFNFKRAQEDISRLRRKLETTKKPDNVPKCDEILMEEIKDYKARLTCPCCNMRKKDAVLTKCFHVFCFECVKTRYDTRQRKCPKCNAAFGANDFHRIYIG

The test addresses T1, FS2-FBXL19 (epitope-tagged wild-type FBXL19, stable mouse ES cell line) (mouse) (UniProt Q6PB97).
T1 sequence: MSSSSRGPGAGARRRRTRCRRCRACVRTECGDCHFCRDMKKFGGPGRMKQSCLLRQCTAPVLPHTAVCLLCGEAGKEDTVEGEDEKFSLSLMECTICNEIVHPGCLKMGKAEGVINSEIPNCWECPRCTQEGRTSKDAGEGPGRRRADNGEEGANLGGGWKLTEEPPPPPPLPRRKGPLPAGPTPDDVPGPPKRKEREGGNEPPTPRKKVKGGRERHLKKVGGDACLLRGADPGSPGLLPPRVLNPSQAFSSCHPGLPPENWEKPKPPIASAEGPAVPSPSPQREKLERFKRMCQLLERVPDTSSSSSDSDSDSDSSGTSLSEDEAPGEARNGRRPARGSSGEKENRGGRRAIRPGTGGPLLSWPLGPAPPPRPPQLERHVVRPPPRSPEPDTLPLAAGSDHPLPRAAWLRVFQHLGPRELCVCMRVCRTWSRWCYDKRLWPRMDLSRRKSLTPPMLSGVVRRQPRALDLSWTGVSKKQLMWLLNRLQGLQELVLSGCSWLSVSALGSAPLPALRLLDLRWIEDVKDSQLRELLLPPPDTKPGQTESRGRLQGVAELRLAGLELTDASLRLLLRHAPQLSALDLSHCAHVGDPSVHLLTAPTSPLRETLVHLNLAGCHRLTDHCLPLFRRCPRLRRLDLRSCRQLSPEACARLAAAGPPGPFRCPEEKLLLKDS
Description: pull-down.

Results are given in words; binding and its absence hold for the method and conditions named. Binding seen in cells or lysates may run through a third protein. Sequences can lack the tags named with a protein.

Turning to “RNF20/40 E3 ubiquitin ligase (from UniProt Q5DTM8 1-973; Q3U319 1-1001) (complex)”, the binding result is given as “no binding”.
